Measured data: PubChem BioAssay AID1904 (GNF, 2009)

Test: 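Novel clock parts and modifiers of the cell-autonomous circadian rhythm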 (follow-up of hits)
Cell system: human U2OS osteosarcoma cells stably expressing a destabilised luciferase driven by the Bmal1 promoter
Reagent: siRNA pair against human genes, 12.5 nM (two siRNAs, 0.5 pmol each, per well)
Duration: about 3 days after transfection, then luminescence recorded for about 4 days
Read-out: 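Period and amplitude fitted from detrended luminescence traces taken every 2 hours; duplicate wells averaged, compared with the screen mean and grouped into phenotype classes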
Active means: 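Scored active if separate single siRNAs repeated the clock phenotype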
Calls: active = confirmed by single siRNAs; inactive = not confirmed
This is not the whole library: the list holds selected reagents. 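Lists only primary-screen hits; phenotype classes come from fitted traces, and the underlying luminescence values are not given.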 The numbers tell different reagents against one gene apart.

| target gene | reagent | clock phenotype class | confirmed with single siRNAs | Outcome |
| --- | --- | --- | --- | --- |
| HSPC148 | 1 | longer clock period; seen with two independent siRNA pairs for the gene | phenotype reproduced by individual siRNAs | active |
| HSPC148 | 2 | longer clock period; seen with two independent siRNA pairs for the gene | phenotype reproduced by individual siRNAs | active |
| NCL | 1 | longer clock period; seen with two independent siRNA pairs for the gene | phenotype reproduced by individual siRNAs | active |
| NCL | 2 | longer clock period; seen with two independent siRNA pairs for the gene | phenotype reproduced by individual siRNAs | active |
| ZNF273 | 1 | shorter clock period; seen with two independent siRNA pairs for the gene | phenotype reproduced by individual siRNAs | active |
| ZNF273 | 2 | shorter clock period; seen with two independent siRNA pairs for the gene | phenotype reproduced by individual siRNAs | active |
| SPAG4L | 1 | longer clock period; seen with two independent siRNA pairs for the gene | phenotype reproduced by individual siRNAs | active |
| SPAG4L | 2 | longer clock period; seen with two independent siRNA pairs for the gene | phenotype reproduced by individual siRNAs | active |
| tAKR | 1 | shorter clock period; seen with two independent siRNA pairs for the gene | phenotype reproduced by individual siRNAs | active |
| tAKR | 2 | shorter clock period; seen with two independent siRNA pairs for the gene | phenotype reproduced by individual siRNAs | active |
| NPC1L1 | 1 | shorter clock period; seen with one siRNA pair in duplicate wells | phenotype reproduced by individual siRNAs | active |
| NPC1L1 | 2 | shorter clock period; seen with one siRNA pair in duplicate wells | phenotype reproduced by individual siRNAs | active |
| P2RY10 | 1 | longer clock period; seen with two independent siRNA pairs for the gene | phenotype reproduced by individual siRNAs | active |
| P2RY10 | 2 | longer clock period; seen with two independent siRNA pairs for the gene | phenotype reproduced by individual siRNAs | active |
| DJ467N11.1 | 1 | longer clock period; seen with two independent siRNA pairs for the gene | phenotype reproduced by individual siRNAs | active |
| DJ467N11.1 | 2 | longer clock period; seen with two independent siRNA pairs for the gene | phenotype reproduced by individual siRNAs | active |
| MMP3 | 1 | shorter clock period; seen with two independent siRNA pairs for the gene | phenotype reproduced by individual siRNAs | active |
| MMP3 | 2 | shorter clock period; seen with two independent siRNA pairs for the gene | phenotype reproduced by individual siRNAs | active |
| WNT2 | 1 | longer clock period; seen with two independent siRNA pairs for the gene | phenotype reproduced by individual siRNAs | active |
| WNT2 | 2 | longer clock period; seen with two independent siRNA pairs for the gene | phenotype reproduced by individual siRNAs | active |
| PEA15 | 1 | higher rhythm amplitude; seen with two independent siRNA pairs for the gene | phenotype reproduced by individual siRNAs | active |
| PEA15 | 2 | higher rhythm amplitude; seen with two independent siRNA pairs for the gene | phenotype reproduced by individual siRNAs | active |
| OPN5 | 1 | longer clock period; seen with two independent siRNA pairs for the gene | phenotype reproduced by individual siRNAs | active |
| OPN5 | 2 | longer clock period; seen with two independent siRNA pairs for the gene | phenotype reproduced by individual siRNAs | active |
| OPN5 | 3 | longer clock period; seen with two independent siRNA pairs for the gene | phenotype reproduced by individual siRNAs | active |
| OPN5 | 4 | longer clock period; seen with two independent siRNA pairs for the gene | phenotype reproduced by individual siRNAs | active |
| EPAS1 | 1 | longer clock period; seen with two independent siRNA pairs for the gene | phenotype not reproduced by individual siRNAs | inconclusive |
| EPAS1 | 2 | longer clock period; seen with two independent siRNA pairs for the gene | phenotype not reproduced by individual siRNAs | inconclusive |
| BTNL8 | 1 | longer clock period; seen with two independent siRNA pairs for the gene | not retested with individual siRNAs | – |
| BTNL8 | 2 | longer clock period; seen with two independent siRNA pairs for the gene | not retested with individual siRNAs | – |
| FLJ10786 | 1 | longer clock period; seen with two independent siRNA pairs for the gene | phenotype reproduced by individual siRNAs | active |
| FLJ10786 | 2 | longer clock period; seen with two independent siRNA pairs for the gene | phenotype reproduced by individual siRNAs | active |

Targets above whose target name begins with M or m:
| target gene | reagent | clock phenotype class | confirmed with single siRNAs | Outcome |
| --- | --- | --- | --- | --- |
| MMP3 | 1 | shorter clock period; seen with two independent siRNA pairs for the gene | phenotype reproduced by individual siRNAs | active |
| MMP3 | 2 | shorter clock period; seen with two independent siRNA pairs for the gene | phenotype reproduced by individual siRNAs | active |

The list goes on.
| target gene | reagent | clock phenotype class | confirmed with single siRNAs | Outcome |
| --- | --- | --- | --- | --- |
| CTDP1 | 1 | longer clock period; seen with two independent siRNA pairs for the gene | phenotype reproduced by individual siRNAs | active |
| CTDP1 | 2 | longer clock period; seen with two independent siRNA pairs for the gene | phenotype reproduced by individual siRNAs | active |
| GRIA2 | 1 | higher rhythm amplitude; seen with one siRNA pair in duplicate wells | phenotype not reproduced by individual siRNAs | inconclusive |
| GRIA2 | 2 | higher rhythm amplitude; seen with one siRNA pair in duplicate wells | phenotype not reproduced by individual siRNAs | inconclusive |
| MAD2L1 | 1 | longer clock period; seen with two independent siRNA pairs for the gene | phenotype not reproduced by individual siRNAs | inconclusive |
| MAD2L1 | 2 | longer clock period; seen with two independent siRNA pairs for the gene | phenotype not reproduced by individual siRNAs | inconclusive |
| TNT | 1 | higher rhythm amplitude; seen with one siRNA pair in duplicate wells | not retested with individual siRNAs | – |
| TNT | 2 | higher rhythm amplitude; seen with one siRNA pair in duplicate wells | not retested with individual siRNAs | – |
| MT3 | 1 | higher rhythm amplitude; seen with one siRNA pair in duplicate wells | phenotype reproduced by individual siRNAs | active |
| MT3 | 2 | higher rhythm amplitude; seen with one siRNA pair in duplicate wells | phenotype reproduced by individual siRNAs | active |
| RNF34 | 1 | longer clock period; seen with two independent siRNA pairs for the gene | phenotype reproduced by individual siRNAs | active |
| RNF34 | 2 | longer clock period; seen with two independent siRNA pairs for the gene | phenotype reproduced by individual siRNAs | active |
| PKLR | 1 | longer clock period; seen with two independent siRNA pairs for the gene | phenotype reproduced by individual siRNAs | active |
| PKLR | 2 | longer clock period; seen with two independent siRNA pairs for the gene | phenotype reproduced by individual siRNAs | active |
| 182-FIP | 1 | shorter clock period; seen with two independent siRNA pairs for the gene | phenotype reproduced by individual siRNAs | active |
| 182-FIP | 2 | shorter clock period; seen with two independent siRNA pairs for the gene | phenotype reproduced by individual siRNAs | active |
| MAGEA12 | 1 | shorter clock period; seen with one siRNA pair in duplicate wells | phenotype reproduced by individual siRNAs | active |
| MAGEA12 | 2 | shorter clock period; seen with one siRNA pair in duplicate wells | phenotype reproduced by individual siRNAs | active |
| LOC388962 | 1 | longer clock period; seen with two independent siRNA pairs for the gene | phenotype not reproduced by individual siRNAs | inconclusive |
| C6orf89 | 1 | shorter clock period; seen with two independent siRNA pairs for the gene | phenotype reproduced by individual siRNAs | active |
| C6orf89 | 2 | shorter clock period; seen with two independent siRNA pairs for the gene | phenotype reproduced by individual siRNAs | active |
| FGF10 | 1 | longer clock period; seen with two independent siRNA pairs for the gene | phenotype reproduced by individual siRNAs | active |
| FGF10 | 2 | longer clock period; seen with two independent siRNA pairs for the gene | phenotype reproduced by individual siRNAs | active |
| DOK5 | 1 | higher rhythm amplitude; seen with one siRNA pair in duplicate wells | phenotype not reproduced by individual siRNAs | inconclusive |
| DOK5 | 2 | higher rhythm amplitude; seen with one siRNA pair in duplicate wells | phenotype not reproduced by individual siRNAs | inconclusive |
| POP1 | 1 | longer clock period; seen with two independent siRNA pairs for the gene | phenotype reproduced by individual siRNAs | active |
| POP1 | 2 | longer clock period; seen with two independent siRNA pairs for the gene | phenotype reproduced by individual siRNAs | active |
| MYL5 | 1 | longer clock period; seen with two independent siRNA pairs for the gene | not retested with individual siRNAs | – |
| MYL5 | 2 | longer clock period; seen with two independent siRNA pairs for the gene | not retested with individual siRNAs | – |
| BSCL2 | 1 | longer clock period; seen with two independent siRNA pairs for the gene | phenotype reproduced by individual siRNAs | active |
| BSCL2 | 2 | longer clock period; seen with two independent siRNA pairs for the gene | phenotype reproduced by individual siRNAs | active |
| DDB1 | 1 | higher rhythm amplitude; seen with two independent siRNA pairs for the gene | phenotype reproduced by individual siRNAs | active |
| DDB1 | 2 | higher rhythm amplitude; seen with two independent siRNA pairs for the gene | phenotype reproduced by individual siRNAs | active |
| CARD11 | 1 | shorter clock period; seen with one siRNA pair in duplicate wells | phenotype not reproduced by individual siRNAs | inconclusive |
| CARD11 | 2 | shorter clock period; seen with one siRNA pair in duplicate wells | phenotype not reproduced by individual siRNAs | inconclusive |
| IRF4 | 1 | higher rhythm amplitude; seen with one siRNA pair in duplicate wells | phenotype reproduced by individual siRNAs | active |
| IRF4 | 2 | higher rhythm amplitude; seen with one siRNA pair in duplicate wells | phenotype reproduced by individual siRNAs | active |
| SERPINC1 | 1 | shorter clock period; seen with one siRNA pair in duplicate wells | phenotype reproduced by individual siRNAs | active |
| SERPINC1 | 2 | shorter clock period; seen with one siRNA pair in duplicate wells | phenotype reproduced by individual siRNAs | active |
| TMEM2 | 1 | longer clock period; seen with two independent siRNA pairs for the gene | phenotype reproduced by individual siRNAs | active |
| TMEM2 | 2 | longer clock period; seen with two independent siRNA pairs for the gene | phenotype reproduced by individual siRNAs | active |
| PRPF4 | 1 | longer clock period; seen with two independent siRNA pairs for the gene | phenotype reproduced by individual siRNAs | active |
| PRPF4 | 2 | longer clock period; seen with two independent siRNA pairs for the gene | phenotype reproduced by individual siRNAs | active |
| SLC7A13 | 1 | longer clock period; seen with two independent siRNA pairs for the gene | not retested with individual siRNAs | – |
| SLC7A13 | 2 | longer clock period; seen with two independent siRNA pairs for the gene | not retested with individual siRNAs | – |
| DKFZP564O0463 | 1 | shorter clock period; seen with one siRNA pair in duplicate wells | phenotype not reproduced by individual siRNAs | inconclusive |
| DKFZP564O0463 | 2 | shorter clock period; seen with one siRNA pair in duplicate wells | phenotype not reproduced by individual siRNAs | inconclusive |
| LHCGR | 1 | longer clock period; seen with two independent siRNA pairs for the gene | phenotype reproduced by individual siRNAs | active |
| LHCGR | 2 | longer clock period; seen with two independent siRNA pairs for the gene | phenotype reproduced by individual siRNAs | active |
| HNRPR | 1 | shorter clock period; seen with two independent siRNA pairs for the gene | phenotype reproduced by individual siRNAs | active |
| HNRPR | 2 | shorter clock period; seen with two independent siRNA pairs for the gene | phenotype reproduced by individual siRNAs | active |
| K-ALPHA-1 | 1 | longer clock period; seen with two independent siRNA pairs for the gene | phenotype reproduced by individual siRNAs | active |
| K-ALPHA-1 | 2 | longer clock period; seen with two independent siRNA pairs for the gene | phenotype reproduced by individual siRNAs | active |
